The text below walks through data of patent US20240067751A1.

Chains of the proteins cited; added tags and fusions are not shown. Lines headed by an entry give the natural chain unless they say otherwise; changes in a name come on top. Residues count along the entry.
UniProt O00187, residues 16-686: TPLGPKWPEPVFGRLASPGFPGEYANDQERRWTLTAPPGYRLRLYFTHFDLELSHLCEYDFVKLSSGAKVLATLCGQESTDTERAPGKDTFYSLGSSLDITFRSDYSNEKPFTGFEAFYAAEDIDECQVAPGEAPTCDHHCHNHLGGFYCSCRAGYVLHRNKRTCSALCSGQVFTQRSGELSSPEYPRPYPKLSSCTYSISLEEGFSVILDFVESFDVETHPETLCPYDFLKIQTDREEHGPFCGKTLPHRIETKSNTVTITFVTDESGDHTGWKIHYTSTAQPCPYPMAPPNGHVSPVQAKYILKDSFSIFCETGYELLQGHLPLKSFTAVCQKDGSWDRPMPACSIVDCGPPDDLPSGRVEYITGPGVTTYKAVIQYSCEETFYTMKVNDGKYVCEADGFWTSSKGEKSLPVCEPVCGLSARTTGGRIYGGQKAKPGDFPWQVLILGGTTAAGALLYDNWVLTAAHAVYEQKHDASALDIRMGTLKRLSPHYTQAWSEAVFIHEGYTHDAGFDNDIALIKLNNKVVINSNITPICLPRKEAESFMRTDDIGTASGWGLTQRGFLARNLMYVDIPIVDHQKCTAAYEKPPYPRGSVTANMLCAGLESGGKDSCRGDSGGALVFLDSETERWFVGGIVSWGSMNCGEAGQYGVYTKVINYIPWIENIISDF
UniProt Q91WP0: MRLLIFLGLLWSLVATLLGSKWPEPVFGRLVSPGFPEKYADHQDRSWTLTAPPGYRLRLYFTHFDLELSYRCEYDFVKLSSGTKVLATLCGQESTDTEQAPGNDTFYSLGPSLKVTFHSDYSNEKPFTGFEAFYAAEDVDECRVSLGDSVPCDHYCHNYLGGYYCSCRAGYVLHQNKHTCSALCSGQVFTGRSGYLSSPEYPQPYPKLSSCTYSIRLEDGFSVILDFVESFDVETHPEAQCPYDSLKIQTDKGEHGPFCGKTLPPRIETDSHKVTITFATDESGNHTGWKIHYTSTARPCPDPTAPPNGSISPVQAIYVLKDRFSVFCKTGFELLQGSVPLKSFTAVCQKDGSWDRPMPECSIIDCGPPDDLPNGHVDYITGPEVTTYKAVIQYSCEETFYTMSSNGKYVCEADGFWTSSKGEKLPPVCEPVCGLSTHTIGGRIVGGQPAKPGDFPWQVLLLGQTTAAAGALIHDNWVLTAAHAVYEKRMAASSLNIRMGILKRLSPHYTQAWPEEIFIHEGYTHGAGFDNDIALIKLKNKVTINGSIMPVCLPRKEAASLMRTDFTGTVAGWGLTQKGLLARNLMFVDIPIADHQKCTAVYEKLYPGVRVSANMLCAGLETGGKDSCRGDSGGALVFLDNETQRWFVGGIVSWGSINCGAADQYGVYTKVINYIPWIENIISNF

Results are given in words; binding and its absence hold for the method and conditions named. Some binding calls cover weakened binding; strength is not graded here.

The target in assay [1] is Cynomolgus monkey MASP-2 D4-6 recombinant protein (Cynomolgus monkey). The experiment in a line: ELISA, coated antigen. (In an ELISA, binding on a coated surface is turned into a signal by an enzyme label.)
The target of assay [2] is human MASP-2 D4-6 recombinant protein (human) (UniProt O00187). The assay is described as follows: ELISA, coated antigen.
Assay [3] has as its target mouse MASP-2 D4-6 recombinant protein (mouse) (UniProt Q91WP0). The experiment in a line: ELISA, coated antigen.
Assay [4] addresses MASP-2 in human serum (human) (UniProt O00187). The experiment in a line: 'affinity assay' of the Fab expressed in E. coli, shown in FIG. 8.

B1: chimeric antibody 4F18 (antibody, V domains shown)
VH: EVQLQESGPGLVKPSQSLSLACTVTGYSITSDYAWHWIRQFPGNKLEWMGFISYSGRTNYNPPLTSRISITRDTSKNQFFLQLNSVTTEDTATYYCARSYDYWFGYWGQGTLVTVSA
VL: NVLMTQTPLSLPVSLGDQASISCRSSQSLVHSNGNTYLEWYMQKPGQSPKLLIYTVSRRFSGVPDRFSGSGSGTDFTLKISRVEAEDLGVYYCFQGSHVPVTFGAGTKLELK
For the molecule B1, the binding result in assay [1], in assay [2] and in assay [3] was “binds” each time.

B2: 28O14 S-A mutant (Ala102) Fab (Fab, V domains shown)
VH: QVQLQQSGTELARPGASVRMSCKASGYTFRSHTMHWVKQRPGQGLEWIGYINPSTGYINYNQKFKDKATLTADKSSSTAYMQLSSLTSEDSAVYYCARSNYAYYYGMDYWGQGTSVTVSS
VL: DIVMTQSHKFMSTSVGDRVTITCKASQDVNTAVAWYQQKPGQSPKLLIYSASYRYTGVPDRFTGSGSGTDFTFTISSLQAEDLAVYYCQQHYNIPLTFGAGTKLELK
With B2, the binding entry in assay [4] is on record as “binds”.
